According to article PMC8028740:
These are yes or no findings as the source states them, for the method shown. In cells and extracts the contact can be indirect. Some results given as binding are weak or reduced against the parent protein; the word gives no strength.

Molecular target: prion protein (PrP) (human (endogenous in autopsy pancreas and brain)) (UniProt P04156)
Test: proximity ligation

Molecule: amylin (islet amyloid polypeptide) (from UniProt P10997 34-70)
- binding: binds

B1: chromogranin A (protein, UniProt P10645 19-457)
chain: LPVNSPMNKGDTEVMKCIVEVISDTLSKPSPMPVSQECFETLRGDERILSILRHQNLLKELQDLALQGAKERAHQQKKHSGFEDELSEVLENQSSQAELKEAVEEPSSKDVMEKREDSKEAEKSGEATDGARPQALPEPMQESKAEGNNQAPGEEEEEEEEATNTHPPASLPSQKYPGPQAEGDSEGLSQGLVDREKGLSAEPGWQAKREEEEEEEEEAEAGEEAVPEEEGPTVVLNPHPSLGYKEIRKGESRSEALAVDGAGKPGAEEAQDPEGKGEQEHSQQKEEEEEMAVVPQGLFRGGKSGELEQEEERLSKEWEDSKRWSKMDQLAKELTAEKRLEGQEEEEDNRDSSMKLSFRARAYGFRGPGPQLRRGWRPSSREDSLEAGLPLQVRGYPEEKKEEEGSANRRPEDQELESLSAIEAELEKVAHQLQALRRG
- binding: no binding
